About 7,700 (2.3%) of roughly 330,000 compounds were called active. Inconclusive means that the source gave no clear call. Such entries were picked first, then a sample of the others. The call rests on the fitted dose curve; in most records, active means well fitted inhibition curve with a large enough effect; inconclusive means small, poorly fitted or top-dose-only effect, or effect the other way; inactive means flat fitted curve, though single readings scatter. Where the call is inconclusive, the potency comes from a doubtful curve fit.
Experiment: qHTS screen for small molecules that inhibit ELG1-dependent DNA repair in human embryonic kidney (HEK293T) cells expressing luciferase-tagged ELG1; further: nearly all actives have a fitted effect of over 55% in size
Conditions: HEK293T ELG1-luciferase reporter, luminescence, 16 h, DNA damage induced by 5-fluorouridine; activity change, negative = inhibition: at 46.1 µM (top of the series)
Procedure, shortened: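 Reporter activity after DNA damage by 5-fluorouridine is monitored. Compound-treated cells incubate 16 hr at 37 °C, then ONE-Glo is added for 30 min before luminescence reading.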
On the % scale 0 is the no-effect control and ±100 the full control effect; potency means the concentration at half of the fitted maximal effect.

| Compound | Potency | activity change, negative = inhibition |
| --- | --- | --- |
| COc1ccc(CCNC(=O)c2cnc3scc(C)n3c2=O)cc1OC | inconclusive: 18.4 µM [inhibitor, partial curve] | – |
| Cc1cc(C)c2nc3sc(C(=O)N4CCOCC4)c(N)c3cc2c1 | inconclusive: 0.517 µM [activator, full curve, poor fit] | – |
| O=C(Nc1cccc([N+](=O)[O-])c1)c1[nH]ncc1Cl | inconclusive: 9.2 µM [activator, partial curve] | – |
| COc1cc(CNCCO)ccc1OCC(=O)Nc1ccc(Br)cc1 | inconclusive: 18.4 µM [activator, single point] | – |
| Cc1ccc(N=C/C(C(=O)C(F)(F)F)=C(\O)c2cccs2)cc1 | inconclusive: 4.11 µM [activator, partial curve] | – |
| O=C(COC(=O)CCC(=O)N1CCOCC1)Nc1ccc(Br)cc1Br | – | inactive: 16.4% |
| CCc1ccc(/C=C2/SC(=S)N(CCC(=O)NCCCN3CCOCC3)C2=O)cc1 | – | inactive: 14.9% |
| COc1ccccc1NC(=O)Nc1nnc(CC(=O)Nc2ccccc2C)s1 | – | inactive: 9.65% |
| O=C(CSc1nnc(-c2ccc3c(c2)OCO3)n1-c1ccccc1)c1ccccc1 | – | inactive: 1.13% |
| COc1cccc(N2CCN(C(=O)c3ccc(CS(=O)Cc4ccc(C)cc4)o3)CC2)c1 (stereo unspecified) | active: 14.6 µM | – |
| O=C1c2ccccc2CCC12N=NCC2c1ccccc1 (stereo unspecified) | inconclusive: 35.5 µM [activator, single point] | – |
| O=C(Cc1ccc(Br)cc1)N1CCCCCC1 | inconclusive: 20.6 µM [activator, partial curve] | – |
| CN1C(=O)NC(c2ccc(C(F)(F)F)cc2)C2=C1CC(C)(C)CC2=O (stereo unspecified) | inconclusive: 25.9 µM [activator, partial curve] | – |
| CCOc1ccc(NC(=O)CSc2nc3c(c(=O)n2-c2ccccc2OC)SCC3)cc1 | – | inactive: -1.1% |
| CCOC(=O)c1ccc(NC(=O)c2nc[nH]c2C(=O)N(CC)CC)cc1 | – | inactive: 18.7% |
| COc1ccc(Cc2n[nH]c(=S)n2C)cc1Br | – | inactive: -8.73% |
| CC(/C=C/c1ccccc1)=N/NC(=O)c1cc([N+](=O)[O-])cc([N+](=O)[O-])c1 | – | inactive: -20.6% |
| COc1ccc(OCc2nnc(SCC(=O)c3c(N)n(C)c(=O)n(C)c3=O)n2-c2ccccc2F)cc1 | – | inactive: 13.4% |
| COc1ccc(C(CNC(=O)c2oc3c(Cl)cccc3c2C)N2CCCC2)cc1 (stereo unspecified) | inconclusive: 5.17 µM [inhibitor, partial curve, poor fit] | – |
| O=C(Nc1ccc2[nH]c3c(c2c1)CCCC3)c1ccco1 | active: 4.47 µM | – |
| Cc1ccc(C(=O)O/N=C(\N)c2ccc(Br)cc2)cc1 | inconclusive: 20.6 µM [activator, partial curve] | – |

A different layout for part of the listing above:
Compound	Potency	activity change, negative = inhibition
Cc1ccc(N=C/C(C(=O)C(F)(F)F)=C(\O)c2cccs2)cc1	inconclusive: 4.11 µM [activator, partial curve]	–
CCc1ccc(/C=C2/SC(=S)N(CCC(=O)NCCCN3CCOCC3)C2=O)cc1	–	inactive: 14.9%
CN1C(=O)NC(c2ccc(C(F)(F)F)cc2)C2=C1CC(C)(C)CC2=O (stereo unspecified)	inconclusive: 25.9 µM [activator, partial curve]	–
COc1ccc(Cc2n[nH]c(=S)n2C)cc1Br	–	inactive: -8.73%

From PubChem BioAssay AID504467 (National Center for Advancing Translational Sciences (NCATS), 2011)
